Two substances from publication doi:10.1101/747592 can be followed below.

Sequences of proteins named here, by UniProt entry; tags and fusion partners are left off. Residues count along the entry.
UniProt O75197, residues 32-1615: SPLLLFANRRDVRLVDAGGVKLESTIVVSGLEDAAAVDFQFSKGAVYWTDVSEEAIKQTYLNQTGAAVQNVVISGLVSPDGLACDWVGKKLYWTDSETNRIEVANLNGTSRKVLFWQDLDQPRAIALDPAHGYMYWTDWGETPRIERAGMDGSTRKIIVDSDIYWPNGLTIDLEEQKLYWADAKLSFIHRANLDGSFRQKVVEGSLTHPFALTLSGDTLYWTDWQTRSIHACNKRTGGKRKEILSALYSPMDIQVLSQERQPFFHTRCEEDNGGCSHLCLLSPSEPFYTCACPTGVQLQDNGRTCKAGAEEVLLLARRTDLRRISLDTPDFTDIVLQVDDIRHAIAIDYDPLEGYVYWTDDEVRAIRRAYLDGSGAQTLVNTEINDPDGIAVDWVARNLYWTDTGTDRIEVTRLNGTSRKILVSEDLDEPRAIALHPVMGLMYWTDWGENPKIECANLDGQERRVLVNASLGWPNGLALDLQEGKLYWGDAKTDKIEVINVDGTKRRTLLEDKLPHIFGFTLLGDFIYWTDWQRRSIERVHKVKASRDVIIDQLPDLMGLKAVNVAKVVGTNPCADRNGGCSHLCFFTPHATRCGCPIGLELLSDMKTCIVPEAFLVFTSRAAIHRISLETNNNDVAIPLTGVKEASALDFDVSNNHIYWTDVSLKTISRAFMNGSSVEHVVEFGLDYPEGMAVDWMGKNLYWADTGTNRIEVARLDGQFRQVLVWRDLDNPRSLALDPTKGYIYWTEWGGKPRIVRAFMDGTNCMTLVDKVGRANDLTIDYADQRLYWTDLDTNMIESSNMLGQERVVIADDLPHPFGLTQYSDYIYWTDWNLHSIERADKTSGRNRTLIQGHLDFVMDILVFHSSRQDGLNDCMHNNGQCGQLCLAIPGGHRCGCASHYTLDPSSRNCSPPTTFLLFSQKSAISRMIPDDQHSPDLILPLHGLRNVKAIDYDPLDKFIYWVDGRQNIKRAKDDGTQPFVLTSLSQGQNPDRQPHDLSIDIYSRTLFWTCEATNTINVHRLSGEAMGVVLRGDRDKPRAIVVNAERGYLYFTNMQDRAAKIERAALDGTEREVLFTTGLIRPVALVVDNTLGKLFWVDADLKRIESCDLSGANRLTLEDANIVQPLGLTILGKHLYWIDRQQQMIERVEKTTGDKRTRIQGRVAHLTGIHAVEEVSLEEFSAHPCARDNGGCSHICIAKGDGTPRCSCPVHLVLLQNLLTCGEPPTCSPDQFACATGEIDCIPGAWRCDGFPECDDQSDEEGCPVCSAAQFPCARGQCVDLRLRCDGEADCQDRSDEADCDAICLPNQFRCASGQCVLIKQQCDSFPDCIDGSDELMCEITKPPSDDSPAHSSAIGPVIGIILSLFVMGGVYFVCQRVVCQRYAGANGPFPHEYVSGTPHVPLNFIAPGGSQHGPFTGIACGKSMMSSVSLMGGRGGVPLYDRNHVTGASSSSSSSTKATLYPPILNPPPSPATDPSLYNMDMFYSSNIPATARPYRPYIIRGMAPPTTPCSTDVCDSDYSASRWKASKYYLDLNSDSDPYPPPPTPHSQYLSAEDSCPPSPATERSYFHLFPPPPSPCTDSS

These are yes or no findings as the source states them, for the method shown. Binding seen in cells or lysates may run through a third protein. Some entries that bind do so weakly or less than the wild type. Tags and fused reporters may be left off the sequences shown.

The target in the assay is T1, Flag-tagged SNX17 (plasmid pECE-M2-Snx17-Flag) (UniProt Q15036).
T1 sequence: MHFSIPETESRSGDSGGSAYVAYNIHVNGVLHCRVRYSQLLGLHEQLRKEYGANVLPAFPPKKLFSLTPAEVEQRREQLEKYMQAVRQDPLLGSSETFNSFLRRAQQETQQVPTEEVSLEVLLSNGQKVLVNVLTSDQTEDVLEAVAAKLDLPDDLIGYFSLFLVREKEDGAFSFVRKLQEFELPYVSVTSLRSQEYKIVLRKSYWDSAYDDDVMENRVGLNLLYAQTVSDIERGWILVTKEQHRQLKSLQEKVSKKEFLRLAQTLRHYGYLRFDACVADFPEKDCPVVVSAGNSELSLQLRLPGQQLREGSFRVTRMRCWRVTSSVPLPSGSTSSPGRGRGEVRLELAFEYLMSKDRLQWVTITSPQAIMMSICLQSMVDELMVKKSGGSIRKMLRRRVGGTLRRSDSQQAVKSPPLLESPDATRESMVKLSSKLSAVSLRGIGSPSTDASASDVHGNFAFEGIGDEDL
Put plainly: co-IP.

For the substance “LRP5 (low-density lipoprotein receptor-related protein 5), endogenous (from UniProt O75197 32-1615)”, the binding entry was “binds”.

“Myc-tagged LRP5 (low-density lipoprotein receptor-related protein 5; plasmid pcDNA3.1-Lrp5-myc-His) (from UniProt O75197 32-1615)”: the binding result is “binds”.
